In PubChem BioAssay AID2551 (National Center for Advancing Translational Sciences (NCATS), 2010):
About 17,000 (5.5%) of roughly 310,000 compounds were called active. The shares of active, inactive and inconclusive entries below differ from those in the screen. Calls come from the whole dose curve; as a rule, active = well fitted inhibition curve with a large enough effect; inconclusive = small, poorly fitted or top-dose-only effect, or effect the other way; inactive = no such curve, though single readings can be large or run the other way. Where the call is inconclusive, the potency comes from a doubtful curve fit.

Protein sequences, listed by entry. Tags and fused reporters are not part of them. Lines headed by an entry give the natural chain unless they say otherwise; changes in a name come on top.
UniProt P51450: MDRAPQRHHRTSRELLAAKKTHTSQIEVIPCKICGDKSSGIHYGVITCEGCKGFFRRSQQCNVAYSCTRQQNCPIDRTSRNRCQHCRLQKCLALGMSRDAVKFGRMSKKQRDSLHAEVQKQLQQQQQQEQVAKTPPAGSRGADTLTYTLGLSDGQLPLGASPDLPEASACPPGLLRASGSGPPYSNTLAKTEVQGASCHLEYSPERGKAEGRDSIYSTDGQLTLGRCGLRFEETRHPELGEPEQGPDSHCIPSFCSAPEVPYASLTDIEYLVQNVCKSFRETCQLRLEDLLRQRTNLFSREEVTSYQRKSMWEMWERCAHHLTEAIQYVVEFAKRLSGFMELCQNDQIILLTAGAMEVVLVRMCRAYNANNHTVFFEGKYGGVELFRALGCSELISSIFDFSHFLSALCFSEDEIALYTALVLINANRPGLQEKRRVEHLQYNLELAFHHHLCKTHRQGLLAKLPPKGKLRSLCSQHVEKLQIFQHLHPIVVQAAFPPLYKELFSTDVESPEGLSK

target: Nuclear receptor ROR-gamma (Mus musculus) (UniProt P51450); experiment: qHTS for inhibitors of ROR gamma transcriptional activity; conditions: Drosophila S2 Gal4-RORgamma UAS-luciferase reporter, 20 h; activity change, negative = inhibition: at 53.6 µM (top of the series); note: nearly all actives have a fitted effect of over 60% in size
In short: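 Compounds are pin-transferred onto Drosophila Schneider cells expressing a copper-inducible Gal4–ROR gamma transactivation domain fusion. After 1 hr, copper sulfate is added to 700 uM final; luciferase is read 20 hr later.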
% is set by controls: 0 for no effect and ±100 for the full control effect; potency is the fitted concentration of half-maximal effect.

Potency, inconclusive:
CC1=CCC2C(=O)N(c3cccc(C(=O)Nc4ccc(Cl)cc4)c3)C(=O)C2C1 (stereo not given) 6.31 µM [activator, partial curve]
CCOC(=O)C1(CCOC)CCN(C(=O)c2ccc(CSC)o2)CC1 0.0794 µM [activator, full curve]
Cc1c(C(=O)Nc2cccc(F)c2)cnn1-c1ccccc1 17.8 µM [activator, partial curve]
Cc1cc(C=O)c(C)n1-c1ccc(N2CCCCC2)c([N+](=O)[O-])c1 35.5 µM [activator, single point]
COc1ccc(S(=O)(=O)n2c(CCN3CCOCC3)nc3ccccc32)cc1 25.1 µM [activator, partial curve]
CCOC(=O)N1CCN(c2c(N3CCc4ccccc4C3)c(=O)c2=O)CC1 39.8 µM [activator, partial curve, poor fit]
CCc1ccc(N=C2NC(=O)/C(=C/c3cc(Br)c(OCC(=O)O)c(OC)c3)S2)cc1 11.2 µM [activator, partial curve]
Cc1ccccc1N1CCN(C(=O)NCc2cccc(Cl)c2)CC1 25.1 µM [activator, single point]
N#CCCN(Cc1cccnc1)C(=O)c1ccc(S(=O)(=O)N2CCOCC2)cc1 0.158 µM [inhibitor, single point]
COc1ccc(S(=O)(=O)N2CCN(c3cc(-c4ccccc4)nc4ncnn34)CC2)cc1 35.5 µM [inhibitor, single point]
CN(c1cccc(NC(=O)c2ccc(N(C)S(=O)(=O)c3ccccc3)cc2)c1)S(C)(=O)=O 12.6 µM [activator, single point]
COc1cc(OC)cc(-c2cc3nc(C)c(CCC(=O)Nc4nc(C)cs4)c(C)n3n2)c1 5.01 µM [activator, single point]
O/N=C1\CC/C(=N\O)c2nn(-c3ccc(Cl)cc3Cl)nc21 12.6 µM [activator, partial curve]
O=C(Cn1c(=O)oc2ccccc21)NCC1COc2ccccc2O1 (stereo not given) 22.4 µM [activator, single point]
CCOC(=O)c1cc(-c2ccccc2)sc1NC(=O)C(C)C 7.08 µM [inhibitor, full curve, poor fit]
COc1ccc(Nc2oc(-c3ccc(Cl)cc3)nc2C#N)cc1 35.5 µM [inhibitor, single point]
CC(C)C(NC(=S)Nc1ccccc1)C(=O)O (stereo not given) 25.1 µM [inhibitor, single point]
CCS(=O)(=O)c1nnnn1-c1ccccc1S(C)(=O)=O 14.1 µM [inhibitor, partial curve, poor fit]
COc1ccc2nc(C)c(C(=O)NN)cc2c1 17.8 µM [inhibitor, single point]
CCOc1ccc(NC(=O)CC2C(=O)N(C)C(=S)N2Cc2ccc3c(c2)OCO3)cc1 (stereo not given) 0.126 µM [activator, single point]
COc1ccc(C(=O)C2C3C4COC(O4)C(=O)C3C3C=Cc4ccccc4N32)c(OC)c1 (stereo not given) 15.8 µM [inhibitor, partial curve, poor fit]
COc1ccc(N2CCN(C(=O)c3ccc(C)cc3)CC2)c([N+](=O)[O-])c1 15.8 µM [activator, single point]

In the list so far, two have a nitro group on carbon:
Potency, inconclusive:
Cc1cc(C=O)c(C)n1-c1ccc(N2CCCCC2)c([N+](=O)[O-])c1 35.5 µM [activator, single point]
COc1ccc(N2CCN(C(=O)c3ccc(C)cc3)CC2)c([N+](=O)[O-])c1 15.8 µM [activator, single point]

Next part.

Potency, active:
Cc1cc(=O)[nH]c(N=N/C(=N/Nc2ccccc2C)c2ccccc2)n1 2.51 µM
Nc1ccc(Oc2ccc([N+](=O)[O-])cc2[N+](=O)[O-])cc1 8.91 µM
Sc1oc(-c2ccccc2)cc1C=Nc1ccccc1 12.6 µM
CCc1sc(C(=O)Nc2nccs2)cc1C 7.94 µM
Cc1ccccc1Nc1c(-c2ccccn2)nc2c(C)cccn12 3.98 µM
CC(C)Oc1ccc(CCc2n[nH]c(=S)n2-c2ccccc2)cc1 7.08 µM
Cc1ccc(O)c(NC(=S)NC(=O)Cc2ccc(Cl)cc2)c1 12.6 µM
COc1ccc(C(=O)NC(=S)Nc2ccc(CN3CCCCC3)cc2)cc1Cl 20 µM
S=C(NNc1cccc(Cl)c1)NC1CCCCC1 0.316 µM
CCC(=O)Nc1ccccc1C(=O)OCC(=O)c1ccccc1 10 µM
O=C(NCc1ccccn1)C1CN(S(=O)(=O)c2ccccc2)CCN1S(=O)(=O)c1ccccc1 (stereo not given) 11.2 µM
COc1ccccc1CNC(=S)NC1CCCCC1 2.24 µM
COc1ccc(-c2cn3cc(C)ccc3n2)cc1OC 11.2 µM

Activity change, negative = inhibition, inactive:
O=C(NC(=S)NCc1nc2ccccc2[nH]1)c1ccccc1F -31.7%
O=[N+]([O-])c1ccc(Nc2ccccc2)c2nonc12 23.1%
Cc1ccc(-c2nc3ccccc3nc2NN)cc1 -39.4%
O=C(NCc1ccco1)c1ccc2c(c1)C(=O)c1ccccc1-2 -22.4%
O=C(O)Cc1ccc(N=Nc2c(O)c(C(=O)O)cc3ccccc23)cc1 -12.6%
CCN(CC)S(=O)(=O)c1ccc(Oc2ccccc2)c(N)c1 52.5%
Cn1c(=O)n(C)c2cc(NS(=O)(=O)c3cccs3)ccc21 -19.2%
COc1ccc(NC(=O)C2C(c3ccccc3)C2(Cl)Cl)cc1 (stereo not given) 18.8%
O=C(Nc1cccc(F)c1)c1ccc(Cn2cc([N+](=O)[O-])cn2)o1 24.3%
O=C1C(=O)N(CCCO)C(c2ccc(Br)cc2)/C1=C(\O)c1ccc(Br)cc1 (stereo not given) -13.3%
Cc1c(N2C(=O)c3ccccc3C2(O)c2ccccc2)c(=O)n(-c2ccccc2)n1C (stereo not given) -17.4%
COc1cccc(-c2nc(CS(=O)(=O)CC(=O)Nc3ccccc3C)c(C)o2)c1 8.7%
O=S(=O)(NOCc1ccc(Cl)cc1)c1ccc(Cl)cc1 4.45%
Cc1ccc(-c2nn3nnnc3c3ccccc23)cc1C -2.06%
COc1cc(/C=N/n2c(C3CCCCC3)n[nH]c2=S)cc(Br)c1O -42.3%
